No constants are given. Whether binding was seen depends on the method and setting.

The target in the assay is Purified recombinant H. pylori SlyD-ΔCter mutant (Helicobacter pylori) (UniProt O25748). Kind of assay: Western blot of purified proteins under non-reducing conditions; purified recombinant SlyD proteins on a gel under non-reducing conditions, probed with anti-SlyD polyclonal antibodies; multimers put down to disulfide bonds; both purified.

With “Purified recombinant H. pylori SlyD-ΔCter mutant (from UniProt O25748 1-154) (domain or fragment)”, the binding result is given as “no binding”.

The values are drawn from paper PMC7840056.
